From publication PMC6224610, “Structural basis for the recognition of sulfur in phosphorothioated DNA” (Nature Communications, 2018)
No constants are given. Whether binding was seen depends on the method and setting.

Target: SBD (sulfur-binding domain) of ScoMcrA (residues 91-260) (Streptomyces coelicolor) (UniProt Q9L0M9)
Assay: crystal structure; ScoMcrA-SBD (91-260) with 8 bp Rp PT-DNA, 1.70 Å; one SBD and one PT-DNA in each asymmetric unit; both purified

binding: no binding
B1: SBD (sulfur-binding domain) of ScoMcrA (residues 91-260) (domain or fragment, UniProt Q9L0M9 91-260)
chain: REAPKTFHRRVGDVRPARRAMGPALHRPVLLLWAIGQAVARAPRLQPWSTTRDAVAPLMEKYGQVEDGVDGVRYPFWALVRDDLWCVEQAEELTLTSRGRRPTLESLNAVDPSAGLREDDYNLLRSQPEAAASAAAGLIARYFHLLPAGLLEDFGLHELLAGRWPDALRP
